Values from PubChem BioAssay AID1259425 (University of Nebraska Medical Center, 2018).
The whole screen tested about 14,000 reagents; shown is a part drawn at random. No sequences are given here. The record does not give: the time to read-out.

- Screen: 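Compare each knockdown with KSR1 silencing using changes in marker transcripts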 (primary screen)
- System: HCT116 human colon cancer cells
- Reagent: siRNA pool against human genes, 50 nM siRNA
- Read-out: 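After 50 nM siRNA pool, branched-DNA assay measures six marker transcripts per well, minus blank, normalised to the geometric mean of two housekeeping transcripts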
- Scale: BNIP3L mRNA: higher = more BNIP3L transcript after knockdown; NDRG1 mRNA: higher = more NDRG1 transcript after knockdown; BNIP3 mRNA: higher = more BNIP3 transcript after knockdown; ALDOC mRNA: higher = more ALDOC transcript after knockdown; ACSL5 mRNA: higher = more ACSL5 transcript after knockdown

Target gene	BNIP3L mRNA, set 1	NDRG1 mRNA, set 1	BNIP3 mRNA, set 1	ALDOC mRNA, set 1	ACSL5 mRNA, set 1
ARG1 (arginase 1)	0.0774	0.111	0.206	0.019	0.116
OTUD3 (OTU deubiquitinase 3)	0.118	0.0535	0.229	0.0124	0.137
TSPAN2 (tetraspanin 2)	0.051	0.114	0.312	0.0312	0.0819
SRF (serum response factor)	0.0761	0.123	0.346	0.00369	0.244
SKAP2 (src kinase associated phosphoprotein 2)	0.0728	0.0688	0.187	0.012	0.119
SETBP1 (SET binding protein 1)	0.0929	0.323	0.642	0.0464	0.308
ATOH1 (atonal bHLH transcription factor 1)	0.14	0.346	0.267	0.0182	0.0719
DTNB (dystrobrevin beta)	0.124	0.432	0.29	-0.00306	0.118
DUS1L (dihydrouridine synthase 1 like)	0.523	0.93	0.52	0.0179	0.203
TCL6 (T cell leukemia/lymphoma 6)	0.0992	0.143	0.266	0.00855	0.162
ADGRF3 (adhesion G protein-coupled receptor F3)	0.112	0.0918	0.242	0.0114	0.139
MEF2D (myocyte enhancer factor 2D)	0.071	0.186	0.28	0.0301	0.165
RBBP9 (RB binding protein 9, serine hydrolase)	0.187	0.346	0.382	0.0233	0.248
JAK1 (Janus kinase 1)	0.132	0.0654	0.199	0.0112	0.198
ZNF580 (zinc finger protein 580)	0.143	0.32	0.551	0.096	0.415
MYOF (myoferlin)	0.0969	0.0987	0.339	0.0298	0.205
BARX2 (BARX homeobox 2)	0.0987	0.19	0.29	0.0156	0.117
AKAP13 (A-kinase anchoring protein 13)	0.0544	0.265	0.2	0.0092	0.228
CNP (2',3'-cyclic nucleotide 3' phosphodiesterase)	0.126	0.762	0.378	0.0698	0.128
KISS1R (KISS1 receptor)	0.169	0.116	0.277	0.0378	0.18
MAP3K3 (mitogen-activated protein kinase kinase kinase 3)	0.036	0.0447	0.228	0.00606	0.198
PTPRS (protein tyrosine phosphatase receptor type S)	0.118	0.231	0.236	0.0203	0.127
SLC2A4RG (SLC2A4 regulator)	0.175	0.535	0.289	0.0587	0.224
POP7 (POP7 ribonuclease P/MRP subunit)	0.148	0.27	0.417	0.106	0.143

3 entries from above, set out differently.
{"Target gene": "PTPRS (protein tyrosine phosphatase receptor type S)", "BNIP3L mRNA, set 1": 0.118, "NDRG1 mRNA, set 1": 0.231, "BNIP3 mRNA, set 1": 0.236, "ALDOC mRNA, set 1": 0.0203, "ACSL5 mRNA, set 1": 0.127}
{"Target gene": "SLC2A4RG (SLC2A4 regulator)", "BNIP3L mRNA, set 1": 0.175, "NDRG1 mRNA, set 1": 0.535, "BNIP3 mRNA, set 1": 0.289, "ALDOC mRNA, set 1": 0.0587, "ACSL5 mRNA, set 1": 0.224}
{"Target gene": "POP7 (POP7 ribonuclease P/MRP subunit)", "BNIP3L mRNA, set 1": 0.148, "NDRG1 mRNA, set 1": 0.27, "BNIP3 mRNA, set 1": 0.417, "ALDOC mRNA, set 1": 0.106, "ACSL5 mRNA, set 1": 0.143}

Continued:
Target gene	BNIP3L mRNA, set 1	NDRG1 mRNA, set 1	BNIP3 mRNA, set 1	ALDOC mRNA, set 1	ACSL5 mRNA, set 1
CA9 (carbonic anhydrase 9)	0.0941	0.502	0.371	0.0195	0.196
CLIC5 (CLIC family member 5)	0.105	0.196	0.209	0.00936	0.0907
PCDH7 (protocadherin 7)	0.0739	0.156	0.239	0.0132	0.224
ENTPD2 (ectonucleoside triphosphate diphosphohydrolase 2)	0.0723	0.307	0.319	0.0675	0.161
AUH (AU RNA binding methylglutaconyl-CoA hydratase)	0.0604	0.147	0.282	0.021	0.177
PPP1R14C (protein phosphatase 1 regulatory inhibitor subunit 14C)	0.0629	0.0649	0.215	0.0178	0.0589
MLLT11 (MLLT11 transcription factor 7 cofactor)	0.0668	0.271	0.244	0.0187	0.151
S100A8 (S100 calcium binding protein A8)	0.0743	0.0771	0.277	0.0243	0.134
AGO2 (argonaute RISC catalytic component 2)	0.183	0.316	0.227	0.0331	0.161
RALGAPB (Ral GTPase activating protein non-catalytic subunit beta)	0.166	0.142	0.328	0.0406	0.251
GRIN1 (glutamate ionotropic receptor NMDA type subunit 1)	0.115	0.0917	0.174	0.0506	0.184
ITGB2 (integrin subunit beta 2)	0.0566	0.179	0.232	0.0288	0.0857
CAPN3 (calpain 3)	0.112	0.319	0.245	0.031	0.17
PRKAR2A	0.072	0.0776	0.364	0.00684	0.224
HDHD3 (haloacid dehalogenase like hydrolase domain containing 3)	0.0682	0.0285	0.203	-0.013	0.0561
P2RY4 (pyrimidinergic receptor P2Y4)	0.212	0.518	0.318	0.0288	0.2
YES1 (YES proto-oncogene 1, Src family tyrosine kinase)	0.109	0.14	0.298	0.0141	0.173
VRTN (vertebrae development associated)	0.0774	0.0668	0.255	0.00996	0.0644
THEMIS2 (thymocyte selection associated family member 2)	0.156	0.444	0.339	0.0282	0.195
RAB5IF (RAB5 interacting factor)	0.0709	0.425	0.229	0.0885	0.126
AREG (amphiregulin)	0.1	0.129	0.199	0.0285	0.14
HOMER2 (homer scaffold protein 2)	0.105	0.139	0.19	0.0136	0.243
MFSD1 (major facilitator superfamily domain containing 1)	0.131	0.159	0.311	0.0229	0.104
HASPIN (histone H3 associated protein kinase)	0.083	0.344	0.28	0.00332	0.309
CCT3 (chaperonin containing TCP1 subunit 3)	0.125	0.202	0.38	0.00947	0.174
CLN6 (CLN6 transmembrane ER protein)	0.13	0.218	0.362	0.034	0.19
